PubChem BioAssay AID504764 – Drosophila RNAi Screening Center – 2011
Test: 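Genome-wide screen for regulators of Notch-driven gene expression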 (primary screen). Cells: Drosophila Kc167 cells. Reagent: long dsRNA against Drosophila genes. Timing: about 5 days (4 days dsRNA, then 24 h after transfection). Conditions: transfection of constitutively active membrane-tethered Notch lacking the extracellular domain, read 24 h later. Measured: 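Light from a Notch-responsive E(spl)m3 luciferase reporter under active Notch, with control-promoter and no-Notch reporter wells to normalise; raw counts from paired wells a and b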. Reading the numbers: induced reporter light, run 1, well a and induced reporter light, run 1, well b: higher = more light from the Notch target reporter with active Notch; control promoter light, run 1, well a and control promoter light, run 1, well b: higher = more light from the viral control promoter (cell number, transfection, viability); uninduced reporter light, run 1, well a: higher = more light from the Notch target reporter without active Notch. Call rule: 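Hit if the duplicate-averaged log2 ratio of induced to control-promoter light gives a plate-wise z beyond ±2, or induced to uninduced beyond ±1.8; weak-control or discordant-duplicate wells dropped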. Calls: active = modifier hit (raised or lowered Notch signal); inactive = not a hit.
The deposit covers about 22,000 reagents; this is a random part of those with a known target gene and a result. In the full data, 403 (1.9%) were called active. 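Unnormalised raw counts per well; ratio z-scores behind the hit calls and whether each hit raises or lowers signal are not deposited.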 A number with no mark means an inactive call. The numbers tell different reagents against one gene apart. Not stated in the record: the amount of reagent.

| target | reagent no. | induced reporter light, run 1, well a | induced reporter light, run 1, well b | control promoter light, run 1, well a | control promoter light, run 1, well b | uninduced reporter light, run 1, well a |
| --- | --- | --- | --- | --- | --- | --- |
| ntc | 1 | 1.50e5 | 1.21e5 | 1.00e5 | 40060 | 10795 |
| ppk15 | 1 | 1.52e5 | 1.31e5 | 1.57e5 | 1.89e5 | 11230 |
| Pde1c | 1 | 1.98e5 | 1.96e5 | 1.18e5 | 1.62e5 | 22160 |
| Pde1c | 2 | 1.95e5 | 2.14e5 | 1.25e5 | 1.69e5 | 24835 |
| Pde1c | 3 | 1.14e5 | 1.44e5 | 74230 | 95005 | 16895 |
| Pde1c | 4 | 1.67e5 | 1.75e5 | 98145 | 1.24e5 | 22665 |
| Pde1c | 5 | 1.33e5 | 1.35e5 | 1.70e5 | 1.83e5 | 15430 |
| Pde1c | 6 | 1.37e5 | 1.61e5 | 1.69e5 | 1.92e5 | 12270 |
| Bro | 1 | 1.29e5 | 1.10e5 | 2.25e5 | 1.38e5 | 6220 |
| CG8138 | 1 | 2.06e5 | 2.29e5 | 1.98e5 | 2.08e5 | 15065 |
| Alp9 | 1 | 80710 | 1.03e5 | 1.07e5 | 34435 | 10645 |
| Cyp311a1 | 1 | 1.54e5 | 1.45e5 | 2.39e5 | 1.90e5 | 9325 |
| Dys | 1 | 1.18e5 | 1.14e5 | 1.55e5 | 1.33e5 | 12292 |
| Dys | 2 | 58835 | 53460 | 74790 | 71475 | 8795 |
| Dys | 3 | 1.82e5 | 1.60e5 | 2.05e5 | 2.09e5 | 12160 |
| Dys | 4 | 2.09e5 | 2.06e5 | 2.23e5 | 2.12e5 | 14840 |
| Dys | 5 | 1.65e5 | 1.56e5 | 1.90e5 | 1.74e5 | 12870 |
| Dys | 6 | 1.68e5 | 1.50e5 | 1.99e5 | 1.91e5 | 12680 |
| Dys | 7 | 1.92e5 | 1.68e5 | 2.33e5 | 1.77e5 | 14955 |
| CG4440 | 1 | 77400 | 1.12e5 | 92000 | 1.09e5 | 9270 |
